The list shows a part of the results.
Key:
Assay in all cases: log2 fold change, soluble protein after heating vs DMSO (PISA); higher = thermal stabilisation; K562 cells, 10 uM, 30 min; active = over 0.2 and 3.5 SD of the protein, either way, in both replicates (recomputed)
[1] = compound: CC1=C(C=C(C=C1)NC(=O)C2=CC(=CC=C2)C(C)(C)C#N)NC3=CC4=C(C=C3)N=CN(C4=O)C
Summary of the method: (§1)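 Quantification of soluble protein used TMTpro 16plex LC-MS/MS, with channel sums equalised. Samples were the supernatant after 21,000xg for 90 min of pooled aliquots from K562 cells (2×10^6 cells/mL) treated with 10 μM compound for 30 min, heated for 3 min over 48°C-58°C, and extracted in PBS with 0.5% NP-40 at 4°C. Values, from duplicates, describe thermal stability against control samples on a log2 fold-change scale.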

The chains behind the UniProt entries cited, without tags or fusion partners. Where a name states a change or a piece, a line headed by the entry shows the natural chain unless it says otherwise.
UniProt Q13469: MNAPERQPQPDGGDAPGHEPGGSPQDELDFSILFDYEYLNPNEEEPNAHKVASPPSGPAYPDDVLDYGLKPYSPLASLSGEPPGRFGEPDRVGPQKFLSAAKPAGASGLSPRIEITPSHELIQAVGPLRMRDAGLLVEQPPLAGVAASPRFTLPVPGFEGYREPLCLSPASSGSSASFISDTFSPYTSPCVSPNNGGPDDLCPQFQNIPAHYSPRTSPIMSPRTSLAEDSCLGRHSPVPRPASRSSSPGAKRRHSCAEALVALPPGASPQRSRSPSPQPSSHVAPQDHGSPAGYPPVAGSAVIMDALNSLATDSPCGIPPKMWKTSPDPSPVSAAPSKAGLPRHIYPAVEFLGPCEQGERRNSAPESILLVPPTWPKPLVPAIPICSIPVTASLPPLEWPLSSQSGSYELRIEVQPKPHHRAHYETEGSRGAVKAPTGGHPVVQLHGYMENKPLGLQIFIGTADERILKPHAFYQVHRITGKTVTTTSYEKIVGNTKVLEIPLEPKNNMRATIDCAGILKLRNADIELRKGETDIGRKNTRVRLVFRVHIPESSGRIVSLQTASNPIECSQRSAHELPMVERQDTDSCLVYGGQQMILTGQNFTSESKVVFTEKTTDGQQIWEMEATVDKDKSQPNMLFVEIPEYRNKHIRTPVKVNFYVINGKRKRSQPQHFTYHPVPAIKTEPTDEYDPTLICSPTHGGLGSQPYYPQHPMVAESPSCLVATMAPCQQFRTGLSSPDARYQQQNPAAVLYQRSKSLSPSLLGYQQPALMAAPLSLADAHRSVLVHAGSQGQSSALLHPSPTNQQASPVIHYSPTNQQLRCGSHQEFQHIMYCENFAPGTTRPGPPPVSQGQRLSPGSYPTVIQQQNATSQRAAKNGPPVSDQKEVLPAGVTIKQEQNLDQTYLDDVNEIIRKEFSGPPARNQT
UniProt Q96D46: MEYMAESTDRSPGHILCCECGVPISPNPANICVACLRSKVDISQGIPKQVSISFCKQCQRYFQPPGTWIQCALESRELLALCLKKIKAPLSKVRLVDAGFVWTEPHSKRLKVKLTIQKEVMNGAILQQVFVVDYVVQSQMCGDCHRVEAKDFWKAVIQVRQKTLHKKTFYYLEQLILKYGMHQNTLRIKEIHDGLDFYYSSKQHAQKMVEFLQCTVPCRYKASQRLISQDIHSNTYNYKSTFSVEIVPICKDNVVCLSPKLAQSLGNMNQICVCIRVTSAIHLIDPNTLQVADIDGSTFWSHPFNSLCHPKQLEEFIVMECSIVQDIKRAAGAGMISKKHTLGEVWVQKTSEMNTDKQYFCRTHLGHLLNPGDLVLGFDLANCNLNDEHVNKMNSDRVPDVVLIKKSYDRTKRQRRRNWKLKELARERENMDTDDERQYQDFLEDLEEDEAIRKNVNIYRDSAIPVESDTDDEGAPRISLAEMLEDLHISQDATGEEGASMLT
UniProt Q12857, whole entry, looked up: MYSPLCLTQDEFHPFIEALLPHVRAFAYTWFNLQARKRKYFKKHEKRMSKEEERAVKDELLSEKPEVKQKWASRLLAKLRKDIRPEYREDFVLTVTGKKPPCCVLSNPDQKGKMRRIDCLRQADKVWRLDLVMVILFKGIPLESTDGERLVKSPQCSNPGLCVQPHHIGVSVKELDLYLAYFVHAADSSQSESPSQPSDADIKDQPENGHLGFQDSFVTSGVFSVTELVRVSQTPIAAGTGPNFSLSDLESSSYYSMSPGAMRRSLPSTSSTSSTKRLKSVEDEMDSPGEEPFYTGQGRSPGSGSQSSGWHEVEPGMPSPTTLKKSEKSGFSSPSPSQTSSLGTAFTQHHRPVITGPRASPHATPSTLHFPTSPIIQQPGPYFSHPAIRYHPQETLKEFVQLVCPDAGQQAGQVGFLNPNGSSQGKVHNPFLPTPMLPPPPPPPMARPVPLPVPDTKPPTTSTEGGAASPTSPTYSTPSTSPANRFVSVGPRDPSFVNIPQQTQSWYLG
UniProt P22392, whole entry, looked up: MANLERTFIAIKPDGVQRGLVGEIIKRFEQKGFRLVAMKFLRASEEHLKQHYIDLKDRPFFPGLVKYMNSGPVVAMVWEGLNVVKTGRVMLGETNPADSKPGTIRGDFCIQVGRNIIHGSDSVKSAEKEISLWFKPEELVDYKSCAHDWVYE
UniProt Q14978: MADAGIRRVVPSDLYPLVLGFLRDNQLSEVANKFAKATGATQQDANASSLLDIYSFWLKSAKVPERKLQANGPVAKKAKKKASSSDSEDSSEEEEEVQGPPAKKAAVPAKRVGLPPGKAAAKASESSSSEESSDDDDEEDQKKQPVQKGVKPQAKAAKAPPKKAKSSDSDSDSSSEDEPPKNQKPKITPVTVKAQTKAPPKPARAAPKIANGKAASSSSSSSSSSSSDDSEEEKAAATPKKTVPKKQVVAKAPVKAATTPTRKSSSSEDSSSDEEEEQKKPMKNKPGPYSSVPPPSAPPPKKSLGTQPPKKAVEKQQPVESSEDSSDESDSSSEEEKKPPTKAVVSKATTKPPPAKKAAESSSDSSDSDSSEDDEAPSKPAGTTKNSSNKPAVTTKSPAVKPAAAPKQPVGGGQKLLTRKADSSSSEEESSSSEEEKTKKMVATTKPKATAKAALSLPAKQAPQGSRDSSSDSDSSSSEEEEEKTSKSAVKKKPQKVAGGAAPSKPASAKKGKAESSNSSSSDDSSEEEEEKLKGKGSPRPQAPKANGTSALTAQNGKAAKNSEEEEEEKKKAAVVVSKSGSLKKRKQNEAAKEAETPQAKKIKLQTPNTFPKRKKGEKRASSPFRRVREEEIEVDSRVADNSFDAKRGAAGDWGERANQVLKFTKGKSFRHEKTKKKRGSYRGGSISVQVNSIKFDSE
UniProt P10588: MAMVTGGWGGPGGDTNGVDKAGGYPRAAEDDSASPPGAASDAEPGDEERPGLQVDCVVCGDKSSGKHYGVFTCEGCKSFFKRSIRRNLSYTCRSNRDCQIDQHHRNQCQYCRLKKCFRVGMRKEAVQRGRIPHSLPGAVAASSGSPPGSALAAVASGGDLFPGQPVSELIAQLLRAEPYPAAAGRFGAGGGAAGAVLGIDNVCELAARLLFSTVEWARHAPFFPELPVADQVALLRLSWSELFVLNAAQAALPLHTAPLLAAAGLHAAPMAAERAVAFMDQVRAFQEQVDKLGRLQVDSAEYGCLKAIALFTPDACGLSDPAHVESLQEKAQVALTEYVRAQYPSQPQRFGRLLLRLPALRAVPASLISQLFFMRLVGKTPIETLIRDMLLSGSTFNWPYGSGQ
UniProt Q9H8H0: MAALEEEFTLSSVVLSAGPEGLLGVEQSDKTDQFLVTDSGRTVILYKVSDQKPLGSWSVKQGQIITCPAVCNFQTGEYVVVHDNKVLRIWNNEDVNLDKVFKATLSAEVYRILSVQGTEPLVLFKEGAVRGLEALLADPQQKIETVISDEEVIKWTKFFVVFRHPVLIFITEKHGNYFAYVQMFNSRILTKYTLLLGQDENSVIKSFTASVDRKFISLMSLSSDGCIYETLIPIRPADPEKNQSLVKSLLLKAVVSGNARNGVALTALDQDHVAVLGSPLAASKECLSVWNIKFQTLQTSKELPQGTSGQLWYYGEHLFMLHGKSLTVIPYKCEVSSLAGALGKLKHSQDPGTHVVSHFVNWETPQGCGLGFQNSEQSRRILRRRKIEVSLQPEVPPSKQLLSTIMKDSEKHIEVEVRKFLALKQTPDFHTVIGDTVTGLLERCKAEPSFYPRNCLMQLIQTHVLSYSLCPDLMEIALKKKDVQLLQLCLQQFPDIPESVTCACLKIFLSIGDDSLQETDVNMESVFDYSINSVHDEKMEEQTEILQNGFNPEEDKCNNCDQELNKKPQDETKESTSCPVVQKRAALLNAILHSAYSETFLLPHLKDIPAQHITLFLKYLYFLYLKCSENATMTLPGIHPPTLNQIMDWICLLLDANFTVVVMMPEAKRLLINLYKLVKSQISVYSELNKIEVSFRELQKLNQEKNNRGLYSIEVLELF
UniProt Q96TA1: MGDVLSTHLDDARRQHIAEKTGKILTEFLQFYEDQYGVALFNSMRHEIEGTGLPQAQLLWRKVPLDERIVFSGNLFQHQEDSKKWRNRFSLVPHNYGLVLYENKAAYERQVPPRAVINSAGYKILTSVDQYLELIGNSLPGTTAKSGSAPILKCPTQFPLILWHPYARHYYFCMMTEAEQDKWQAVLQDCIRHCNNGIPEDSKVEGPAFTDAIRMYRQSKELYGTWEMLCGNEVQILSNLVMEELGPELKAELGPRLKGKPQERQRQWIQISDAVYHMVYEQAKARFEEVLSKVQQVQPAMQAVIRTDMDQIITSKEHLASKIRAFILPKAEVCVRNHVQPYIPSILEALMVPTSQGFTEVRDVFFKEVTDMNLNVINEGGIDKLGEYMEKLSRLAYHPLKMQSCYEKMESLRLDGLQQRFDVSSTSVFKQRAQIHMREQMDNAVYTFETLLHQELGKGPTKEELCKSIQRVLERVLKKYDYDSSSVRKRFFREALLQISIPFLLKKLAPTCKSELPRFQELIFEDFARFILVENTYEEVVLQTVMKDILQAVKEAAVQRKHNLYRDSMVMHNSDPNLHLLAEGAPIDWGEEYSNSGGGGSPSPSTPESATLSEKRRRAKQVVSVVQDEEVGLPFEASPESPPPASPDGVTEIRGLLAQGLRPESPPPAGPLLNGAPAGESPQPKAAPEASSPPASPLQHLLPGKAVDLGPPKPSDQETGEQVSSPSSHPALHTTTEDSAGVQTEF
UniProt P55786: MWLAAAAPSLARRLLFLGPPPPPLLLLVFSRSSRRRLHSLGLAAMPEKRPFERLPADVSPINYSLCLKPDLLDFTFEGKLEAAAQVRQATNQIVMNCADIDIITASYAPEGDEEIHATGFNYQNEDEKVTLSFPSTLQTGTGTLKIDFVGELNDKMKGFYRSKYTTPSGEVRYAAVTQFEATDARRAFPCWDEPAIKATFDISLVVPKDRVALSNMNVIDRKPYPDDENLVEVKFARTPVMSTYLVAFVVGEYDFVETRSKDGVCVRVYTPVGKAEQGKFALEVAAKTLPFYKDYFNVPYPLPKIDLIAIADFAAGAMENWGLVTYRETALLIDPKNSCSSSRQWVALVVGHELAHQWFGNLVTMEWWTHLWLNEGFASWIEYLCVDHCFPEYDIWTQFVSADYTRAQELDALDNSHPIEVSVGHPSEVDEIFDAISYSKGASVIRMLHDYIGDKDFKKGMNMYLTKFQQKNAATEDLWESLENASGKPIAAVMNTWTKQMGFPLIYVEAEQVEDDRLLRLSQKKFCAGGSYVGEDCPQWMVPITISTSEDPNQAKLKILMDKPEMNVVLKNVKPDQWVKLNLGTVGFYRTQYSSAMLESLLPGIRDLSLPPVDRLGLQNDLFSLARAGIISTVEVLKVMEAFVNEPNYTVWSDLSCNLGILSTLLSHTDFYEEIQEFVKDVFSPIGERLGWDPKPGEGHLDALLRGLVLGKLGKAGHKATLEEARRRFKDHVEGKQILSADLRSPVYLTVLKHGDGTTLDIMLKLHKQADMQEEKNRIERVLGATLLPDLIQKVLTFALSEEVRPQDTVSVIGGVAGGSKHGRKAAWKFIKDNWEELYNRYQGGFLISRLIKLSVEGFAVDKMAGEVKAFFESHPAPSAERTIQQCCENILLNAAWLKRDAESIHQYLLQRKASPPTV
UniProt P46087: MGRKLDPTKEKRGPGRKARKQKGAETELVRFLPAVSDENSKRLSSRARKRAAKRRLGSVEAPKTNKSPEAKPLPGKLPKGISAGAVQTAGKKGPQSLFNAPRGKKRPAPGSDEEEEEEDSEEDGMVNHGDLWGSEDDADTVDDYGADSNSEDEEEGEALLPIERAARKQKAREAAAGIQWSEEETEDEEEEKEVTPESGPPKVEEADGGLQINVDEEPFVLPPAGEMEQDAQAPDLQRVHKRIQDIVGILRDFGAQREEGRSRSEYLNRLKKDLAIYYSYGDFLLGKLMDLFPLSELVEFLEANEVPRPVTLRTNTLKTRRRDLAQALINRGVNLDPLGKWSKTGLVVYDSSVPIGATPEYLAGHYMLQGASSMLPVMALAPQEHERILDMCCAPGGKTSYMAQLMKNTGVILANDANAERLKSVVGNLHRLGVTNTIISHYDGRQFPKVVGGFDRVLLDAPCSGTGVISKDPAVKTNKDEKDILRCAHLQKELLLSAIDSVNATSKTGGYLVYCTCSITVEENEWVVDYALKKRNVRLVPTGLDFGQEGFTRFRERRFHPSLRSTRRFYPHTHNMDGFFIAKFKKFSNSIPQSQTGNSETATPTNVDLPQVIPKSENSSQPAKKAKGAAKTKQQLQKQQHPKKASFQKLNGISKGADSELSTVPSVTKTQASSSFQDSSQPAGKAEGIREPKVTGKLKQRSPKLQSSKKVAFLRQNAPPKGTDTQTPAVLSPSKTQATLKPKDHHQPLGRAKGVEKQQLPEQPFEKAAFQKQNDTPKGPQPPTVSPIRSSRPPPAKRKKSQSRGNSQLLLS

[2] = compound: CC1=C(C=C(C=C1)NC(=O)C2=CC(=CC=C2)N(C)C)NC(=O)C3=CC=C(C=C3)O
Summary of the method: as §1

[3] = compound: CC1=CC=C(C=C1)SC2=C3C=C(SC3=CN=C2)C(=O)N
Summary of the method: as §1

[4] = compound: CC1=NC(=CC=C1)C2=C(N=C(N2)C(C)(C)C)C3=CC4=NC=CN=C4C=C3
Summary of the method: as §1

[5] = compound: CCCCN(Cc1ccc(C(=O)NO)cc1)C(=O)Nc1ccccc1 [Nexturastat A]
Summary of the method: as §1

[6] = compound: CCCS(=O)(=O)Nc1ccc(F)c(C(=O)c2c[nH]c3ncc(-c4ccc(Cl)cc4)cc23)c1F [vemurafenib]
Summary of the method: as §1

[7] = compound: CCCS(=O)(=O)Nc1ccc(F)c(C(=O)c2c[nH]c3ncc(Cl)cc23)c1F
Summary of the method: as §1

[8] = compound: CCCc1cc(C)[nH]c(=O)c1CNC(=O)c1cc(-c2ccnc(N3CCN(C)CC3)c2)cc2c1cnn2C(C)C
Summary of the method: as §1

[9] = compound: CCN(CC)Cc1ccc2cc(COC(=O)Nc3ccc(C(=O)NO)cc3)ccc2c1 [givinostat]
Summary of the method: as §1

[10] = compound: CCN(CCCOc1ccc2c(Nc3cc(CC(=O)Nc4cccc(F)c4)[nH]n3)ncnc2c1)CCOP(=O)(O)O [barasertib]
Summary of the method: as §1

Measured: log2 fold change

NNT (UniProt Q13423)
inactive: [1] 0.02 | [2] -0.004 | [3] 0.004 | [4] 0.058 | [5] -0.091 | [6] 0.025 | [7] 0.016 | [8] -0.023 | [9] 0.001 | [10] 0.01

NFATC2 (UniProt Q13469)
inactive: [1] -0.046 | [2] -0.079 | [3] -0.031 | [4] 0.018 | [5] 0.12 | [6] 0.038 | [7] 0.041 | [8] 0.086 | [9] 0.192 | [10] 0.107

NRAS (UniProt P01111)
inactive: [1] -0.062 | [2] -0.001 | [3] -0.028 | [4] 0.004 | [5] -0.011 | [6] 0.025 | [7] -0.028 | [8] 0.017 | [9] -0.018 | [10] -0.038

NGDN (UniProt Q8NEJ9)
inactive: [1] -0.091 | [2] 0.087

NMD3 (UniProt Q96D46)
inactive: [1] 0.03 | [2] -0.061 | [3] -0.009 | [4] 0.067 | [5] -0.079 | [6] 0.077 | [7] 0.03 | [8] -0.004 | [9] -0.024 | [10] 0.015

NFIA isoform 4 (UniProt Q12857)
inactive: [1] -0.069 | [2] 0.048 | [3] -0.011 | [4] 0.037 | [5] -0.001 | [6] -0.02 | [7] -0.026 | [8] -0.016 | [9] -0.186 | [10] -0.021

NISCH (UniProt Q9Y2I1)
inactive: [1] 0.009 | [2] -0.07 | [3] -0.054 | [4] -0.018 | [5] 0.094 | [6] 0.055 | [7] 0.116 | [8] -0.077 | [9] 0.032 | [10] 0.075

NRF1 isoform 4 (UniProt Q16656)
inactive: [1] 0.002 | [2] 0.03 | [3] -0.015 | [4] 0.051 | [5] -0.316 | [6] 0.004 | [7] 0.081 | [8] -0.007 | [9] 0.042 | [10] 0.034

NGLY1 (UniProt Q96IV0)
inactive: [1] -0.034 | [2] -0.039 | [3] 0.052 | [4] -0.016 | [5] 0.102 | [6] 0.009 | [7] 0.026 | [8] 0.016 | [9] 0.036 | [10] 0.024

NMRAL1 (UniProt Q9HBL8)
active: [1] 1.01
inactive: [2] 0.029 | [3] 0.025 | [4] -0.151 | [5] -0.138 | [6] 0.003 | [7] -0.074 | [8] 0.234 | [9] 0.027 | [10] -0.021

NEK3 (UniProt P51956)
inactive: [1] 0.058 | [2] -0.055 | [3] 0.052 | [4] -0.108 | [5] -0.033 | [6] 0.089 | [7] -0.123 | [8] -0.063 | [9] -0.013

NOA1 (UniProt Q8NC60)
inactive: [1] 0.011 | [2] -0.057 | [3] -0.025 | [4] -0.054 | [5] 0.199 | [6] -0.026 | [7] 0.006 | [8] 0.073 | [9] 0.086 | [10] -0.031

NME2 isoform 2 (UniProt P22392)
inactive: [1] -0.035 | [2] 0.019 | [3] 0.011 | [4] 0.016 | [5] -0.056 | [6] -0.038 | [7] -0.037 | [8] -0.074 | [9] -0.031 | [10] -0.021

NOLC1 isoform 2 (UniProt Q14978)
inactive: [1] -0.074 | [2] -0.004 | [3] -0.082 | [4] -0.051 | [5] 0.018 | [6] -0.088 | [7] -0.032 | [8] 0.104 | [9] 0.143 | [10] -0.033

NR2F6 (UniProt P10588)
inactive: [1] 0.044 | [2] 0.039 | [3] 0.022 | [4] -0.033 | [5] -0.103 | [6] -0.004 | [7] 0.071 | [8] 0.054 | [9] -0.103 | [10] -0.107

NOL11 (UniProt Q9H8H0)
inactive: [1] -0.023 | [2] 0.029 | [3] 0.004 | [4] 0.013 | [5] -0.024 | [6] -0.026 | [7] 0.003 | [8] -0.016 | [9] 0.015 | [10] -0.021

NEK9 (UniProt Q8TD19)
inactive: [1] -0.003 | [2] 0.037 | [3] -0.01 | [4] -0.012 | [5] 0.005 | [6] -0.026 | [7] 0.031 | [8] 0.029 | [9] 0.013 | [10] 0.039

NELFE isoform 3 (UniProt P18615)
inactive: [1] 0.006 | [2] 0.024 | [3] -0.02 | [4] 0.03 | [5] -0.059 | [6] 0.079 | [7] 0.005 | [8] -0.001 | [9] 0.018 | [10] 0.05

NIBAN2 (UniProt Q96TA1)
inactive: [1] -0.025 | [2] -0.009 | [3] 0.018 | [4] -0.018 | [5] -0.021 | [6] 0.014 | [7] 0.025 | [8] 0.019 | [9] 0.016 | [10] 0.018

NPEPPS (UniProt P55786)
inactive: [1] 0.079 | [2] -0.012 | [3] -0.004 | [4] 0.018 | [5] -0.017 | [6] -0.022 | [7] 0.003 | [8] 0.009 | [9] -0.02 | [10] 0.008

NQO1 (UniProt P15559)
inactive: [1] 0.075 | [2] -0.023 | [3] 0.032 | [4] 0.025 | [5] -0.049 | [6] 0.027 | [7] -0.007 | [8] 0.039 | [9] -0.01 | [10] 0.036

NIT1 (UniProt Q86X76)
inactive: [1] -0.023 | [2] 0 | [3] 0.063 | [4] 0.002 | [5] 0.01 | [6] -0.051 | [7] 0 | [8] -0.068 | [9] 0.007 | [10] 0.013

2 neighbouring entries from above, quoted:
NME2 isoform 2 (UniProt P22392)
inactive: [1] -0.035 | [2] 0.019 | [3] 0.011 | [4] 0.016 | [5] -0.056 | [6] -0.038 | [7] -0.037 | [8] -0.074 | [9] -0.031 | [10] -0.021

NOLC1 isoform 2 (UniProt Q14978)
inactive: [1] -0.074 | [2] -0.004 | [3] -0.082 | [4] -0.051 | [5] 0.018 | [6] -0.088 | [7] -0.032 | [8] 0.104 | [9] 0.143 | [10] -0.033

Following part:

NIPA2 (UniProt Q8N8Q9)
inactive: [1] -0.181 | [2] -0.058 | [3] -0.024 | [4] 0.044 | [5] -0.057 | [6] -0.019 | [7] 0.018 | [8] -0.147 | [9] 0.031 | [10] -0.016

NMT2 (UniProt O60551)
inactive: [1] 0.006 | [2] 0.018 | [3] 0.237 | [4] 0.024 | [5] -0.037 | [6] -0.034 | [7] 0.031 | [8] 0.02 | [9] -0.233 | [10] 0

NOP2 isoform 4 (UniProt P46087)
inactive: [1] -0.031 | [2] -0.062 | [3] -0.105 | [4] -0.264 | [5] 0.2 | [6] -0.433 | [7] -0.051 | [8] 0.172 | [9] 0.178 | [10] -0.223

NIPSNAP1 (UniProt Q9BPW8)
inactive: [1] 0.051 | [2] -0.003 | [3] 0.032 | [4] 0.041 | [5] -0.041 | [6] 0.109 | [7] 0.053 | [8] -0.016 | [9] -0.047 | [10] -0.018

NOP53 (UniProt Q9NZM5)
inactive: [1] -0.052 | [2] 0.005 | [3] -0.073 | [4] -0.163 | [5] 0.264 | [6] -0.154 | [7] -0.147 | [8] 0.204 | [9] 0.048 | [10] -0.105

NFS1 (UniProt Q9Y697)
inactive: [1] -0.016 | [2] -0.024 | [3] 0.009 | [4] 0.022 | [5] -0.053 | [6] 0.027 | [7] 0.031 | [8] -0.032 | [9] -0.005 | [10] 0.014

NF2 (UniProt P35240)
inactive: [1] 0.088 | [2] 0.048 | [3] -0.024 | [4] -0.025 | [5] -0.011 | [6] 0.019 | [7] 0.015 | [8] 0.019 | [9] 0.111 | [10] -0.036

NFX1 (UniProt Q12986)
inactive: [1] -0.113 | [2] 0.051 | [3] -0.082 | [4] 0.004 | [5] 0.287 | [6] 0.148 | [7] -0.032 | [8] 0.17 | [9] 0 | [10] -0.125

Reference: the supplement of paper PMC10849652
